# From the supplement of paper PMC8728848
# The other results are listed elsewhere or left out.
# Experiments:
# Experiment in all cases: glycan array binding signal (z-score within array); higher = stronger binding
# Details in all cases: glycan notation: IUPAC condensed, linker removed
# [1] = target: Gal(a1-6)Glc
# In short: (§1)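 Negative Z-scores can be read as non-binding. The Z-score is calculated within each array and then averaged across arrays of one protein sequence at different concentrations or buffers and across linkers. Arrays, 3228 in all, were curated from the Consortium for Functional Glycomics database and kept only where the protein sequence was available.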
# [2] = target: Gal(b1-2)Gal
# In short: as §1
# [3] = target: Gal(b1-3)Gal
# In short: as §1
# [4] = target: Gal(b1-3)Gal(b1-4)GlcNAc
# In short: as §1
# [5] = target: Gal(b1-3)GalNAc
# In short: as §1
# [6] = target: Gal(b1-3)GalNAc(a1-3)[Fuc(a1-2)]Gal(b1-4)Glc
# In short: as §1
# [7] = target: Gal(b1-3)GalNAc(a1-3)[Fuc(a1-2)]Gal(b1-4)GlcNAc
# In short: as §1
# [8] = target: Gal(b1-3)GalNAc(b1-3)Gal
# In short: as §1
# [9] = target: Gal(b1-3)GalNAc(b1-3)Gal(a1-4)Gal(b1-4)Glc
# In short: as §1
# [10] = target: Gal(b1-3)GalNAc(b1-4)Gal(b1-4)Glc
# In short: as §1
# [11] = target: Gal(b1-3)GalNAc(b1-4)[Neu5Ac(a2-3)]Gal(b1-4)Glc
# In short: as §1
# [12] = target: Gal(b1-3)GlcNAc
# In short: as §1
# [13] = target: Gal(b1-3)GlcNAc(a1-3)Gal(b1-4)GlcNAc
# In short: as §1
# [14] = target: Gal(b1-3)GlcNAc(a1-6)Gal(b1-4)GlcNAc
# In short: as §1
# [15] = target: Gal(b1-3)GlcNAc(b1-2)Man
# In short: as §1
# [16] = target: Gal(b1-3)GlcNAc(b1-2)Man(a1-3)[Gal(b1-3)GlcNAc(b1-2)Man(a1-6)]Man(b1-4)GlcNAc(b1-4)GlcNAc
# In short: as §1
# [17] = target: Gal(b1-3)GlcNAc(b1-2)Man(a1-3)[Gal(b1-3)GlcNAc(b1-2)Man(a1-6)]Man(b1-4)GlcNAc(b1-4)[Fuc(a1-6)]GlcNAc
# In short: as §1
# [18] = target: Gal(b1-3)GlcNAc(b1-2)Man(a1-3)[GlcNAc(b1-4)][Gal(b1-3)GlcNAc(b1-2)Man(a1-6)]Man(b1-4)GlcNAc(b1-4)GlcNAc
# In short: as §1
# [19] = target: Gal(b1-3)GlcNAc(b1-2)[Gal(b1-3)GlcNAc(b1-6)]Man(a1-6)[Gal(b1-3)GlcNAc(b1-2)Man(a1-3)]Man(b1-4)GlcNAc(b1-4)GlcNAc
# In short: as §1
# [20] = target: Gal(b1-3)GlcNAc(b1-3)Gal(b1-3)GlcNAc
# In short: as §1
# [21] = target: Gal(b1-3)GlcNAc(b1-3)Gal(b1-4)Glc
# In short: as §1
# [22] = target: Gal(b1-3)GlcNAc(b1-3)Gal(b1-4)GlcNAc
# In short: as §1
# [23] = target: Gal(b1-3)GlcNAc(b1-3)Gal(b1-4)GlcNAc(b1-2)Man(a1-3)[Gal(b1-3)GlcNAc(b1-3)Gal(b1-4)GlcNAc(b1-2)Man(a1-6)]Man(b1-4)GlcNAc(b1-4)GlcNAc
# In short: as §1
# [24] = target: Gal(b1-3)GlcNAc(b1-3)Gal(b1-4)GlcNAc(b1-2)[Gal(b1-3)GlcNAc(b1-3)Gal(b1-4)GlcNAc(b1-6)]Man(a1-6)[Gal(b1-3)GlcNAc(b1-3)Gal(b1-4)GlcNAc(b1-2)Man(a1-3)]Man(b1-4)GlcNAc(b1-4)[Fuc(a1-6)]GlcNAc
# In short: as §1
# [25] = target: Gal(b1-3)GlcNAc(b1-3)Gal(b1-4)GlcNAc(b1-3)Gal(b1-4)GlcNAc(b1-2)[Gal(b1-3)GlcNAc(b1-3)Gal(b1-4)GlcNAc(b1-3)Gal(b1-4)GlcNAc(b1-6)]Man(a1-6)[Gal(b1-3)GlcNAc(b1-3)Gal(b1-4)GlcNAc(b1-3)Gal(b1-4)GlcNAc(b1-2)Man(a1-3)]Man(b1-4)GlcNAc(b1-4)[Fuc(a1-6)]GlcNAc
# In short: as §1
# [26] = target: Gal(b1-3)GlcNAc(b1-3)Gal(b1-4)GlcNAc(b1-6)[Gal(b1-3)GlcNAc(b1-3)]Gal(b1-4)Glc
# In short: as §1
# [27] = target: Gal(b1-3)GlcNAc(b1-3)Gal(b1-4)[Fuc(a1-3)]GlcNAc
# In short: as §1
# [28] = target: Gal(b1-3)GlcNAc(b1-3)Gal(b1-4)[Fuc(a1-3)]GlcNAc(b1-6)[Gal(b1-3)GlcNAc(b1-3)]Gal(b1-4)Glc
# In short: as §1
# [29] = target: Gal(b1-3)GlcNAc(b1-3)GalNAc
# In short: as §1
# [30] = target: Gal(b1-3)GlcNAc(b1-6)Gal(b1-4)GlcNAc
# In short: as §1
# [31] = target: Gal(b1-3)GlcNAc(b1-6)GalNAc
# In short: as §1
# [32] = target: Gal(b1-3)GlcNAc(b1-6)[Gal(b1-3)]GalNAc
# In short: as §1
# [33] = target: Gal(b1-3)GlcNAc6S
# In short: as §1
# [34] = target: Gal(b1-3)[Fuc(a1-4)]GlcNAc
# In short: as §1
# [35] = target: Gal(b1-3)[Fuc(a1-4)]GlcNAc(b1-2)Man
# In short: as §1
# [36] = target: Gal(b1-3)[Fuc(a1-4)]GlcNAc(b1-2)Man(a1-3)[Gal(b1-3)[Fuc(a1-4)]GlcNAc(b1-2)Man(a1-6)]Man(b1-4)GlcNAc(b1-4)[Fuc(a1-6)]GlcNAc
# In short: as §1
# [37] = target: Gal(b1-3)[Fuc(a1-4)]GlcNAc(b1-3)Gal(b1-3)[Fuc(a1-4)]GlcNAc
# In short: as §1
binder,measurement,setting,value
"RsaA-N-term (Caulobacter crescentus), P35828 (protein) MAYTTAQLVTAYTNANLGKAPDAATTLTLDAYATQTQTGGLSDAAALTNTLKLVNSTTAVAIQTYQFFTGVAPSAAGLDFLVDSTTNTNDLNDAYYSKFAQENRFINFSINLATGAGAGATAFAAAYTGVSYAQTVATAYDKIIGNAVATAAGVDVAAAVAFLSRQANIDYLTAFVRANTPFTAAADIDLAVKAALIGTILNAATVSGIGGYATATAAMINDLSDGALSTDNAAGVNLFTAYPSSGVSGSTLSLTTGTDTLTGTANNDTFVAGEVAGDGSGWSHPQFEKGG",glycan array binding signal (z-score),[1],-0.066
same,glycan array binding signal (z-score),[2],0.282
same,glycan array binding signal (z-score),[3],-0.381
same,glycan array binding signal (z-score),[4],-0.156
same,glycan array binding signal (z-score),[5],-0.009
same,glycan array binding signal (z-score),[6],0.022
same,glycan array binding signal (z-score),[7],-0.152
same,glycan array binding signal (z-score),[8],0.809
same,glycan array binding signal (z-score),[9],-0.037
same,glycan array binding signal (z-score),[10],0.473
same,glycan array binding signal (z-score),[11],-0.359
same,glycan array binding signal (z-score),[12],-0.478
same,glycan array binding signal (z-score),[13],0.874
same,glycan array binding signal (z-score),[14],-0.12
same,glycan array binding signal (z-score),[15],-0.66
same,glycan array binding signal (z-score),[16],0.96
same,glycan array binding signal (z-score),[17],-0.118
same,glycan array binding signal (z-score),[18],1.77
same,glycan array binding signal (z-score),[19],0.045
same,glycan array binding signal (z-score),[20],-1.48
same,glycan array binding signal (z-score),[21],-0.55
same,glycan array binding signal (z-score),[22],0.211
same,glycan array binding signal (z-score),[23],0.124
same,glycan array binding signal (z-score),[24],0.788
same,glycan array binding signal (z-score),[25],0.909
same,glycan array binding signal (z-score),[26],-1.44
same,glycan array binding signal (z-score),[27],0.064
same,glycan array binding signal (z-score),[28],-0.531
same,glycan array binding signal (z-score),[29],1.8
same,glycan array binding signal (z-score),[30],0.088
same,glycan array binding signal (z-score),[31],0.291
same,glycan array binding signal (z-score),[32],-0.25
same,glycan array binding signal (z-score),[33],-1.06
same,glycan array binding signal (z-score),[34],-0.254
same,glycan array binding signal (z-score),[35],2.17
same,glycan array binding signal (z-score),[36],0.463
same,glycan array binding signal (z-score),[37],0.149

# At a glance, part of the list above:
binder,measurement,setting,value
"RsaA-N-term (Caulobacter crescentus), P35828 (protein) MAYTTAQLVTAYTNANLGKAPDAATTLTLDAYATQTQTGGLSDAAALTNTLKLVNSTTAVAIQTYQFFTGVAPSAAGLDFLVDSTTNTNDLNDAYYSKFAQENRFINFSINLATGAGAGATAFAAAYTGVSYAQTVATAYDKIIGNAVATAAGVDVAAAVAFLSRQANIDYLTAFVRANTPFTAAADIDLAVKAALIGTILNAATVSGIGGYATATAAMINDLSDGALSTDNAAGVNLFTAYPSSGVSGSTLSLTTGTDTLTGTANNDTFVAGEVAGDGSGWSHPQFEKGG",glycan array binding signal (z-score),[21],-0.55
same,glycan array binding signal (z-score),[22],0.211
